No constants are given. Whether binding was seen depends on the method and setting. Some results given as binding are weak or reduced against the parent protein; the word gives no strength. Sequences can lack the tags named with a protein.
Legend:
myc-tagged Twist (mouse) [1] = biological target: myc-tagged Twist (mouse) (UniProt P26687); experiment: non-reducing SDS-PAGE and Western blot of transfected 293 cells (FIG. 1a)
myc-tagged Twist (mouse) [2] = biological target: myc-tagged Twist (mouse) (UniProt P26687); experiment: non-reducing SDS-PAGE and Western blot of transfected 293T HEK cell extracts
myc-tagged Twist (mouse) [3] = biological target: myc-tagged Twist (mouse) (UniProt P26687); experiment: non-reducing SDS-PAGE and Western blot of transfected 293 cells (FIG. 8)
myc-tagged Twist (mouse) [4] = biological target: myc-tagged Twist (mouse) (UniProt P26687); experiment: EMSA on the MCK E box probe with in vitro-translated proteins

binding (myc-tagged Twist (mouse) [1]): binds
binding (myc-tagged Twist (mouse) [2]): binds
binding (myc-tagged Twist (mouse) [3]): binds
binding (myc-tagged Twist (mouse) [4]): binds
B1: myc-tagged Twist (protein, mouse, UniProt P26687 1-206, looked up, not shown: small tags and cut ends)
chain: MMQDVSSSPVSPADDSLSNSEEEPDRQQPASGKRGARKRRSSRRSAGGSAGPGGATGGGIGGGDEPGSPAQGKRGKKSAGGGGGGGAGGGGGGGGGSSSGGGSPQSYEELQTQRVMANVRERQRTQSLNEAFAALRKIIPTLPSDKLSKIQTLKLAARYIDFLYQVLQSDELDSKMASCSYVAHERLSYAFSVWRMEGAWSMSASH

— patent US20070093442A1
